The target of the test is T1, HA-UPF1, Q9FJR0.
T1 chain: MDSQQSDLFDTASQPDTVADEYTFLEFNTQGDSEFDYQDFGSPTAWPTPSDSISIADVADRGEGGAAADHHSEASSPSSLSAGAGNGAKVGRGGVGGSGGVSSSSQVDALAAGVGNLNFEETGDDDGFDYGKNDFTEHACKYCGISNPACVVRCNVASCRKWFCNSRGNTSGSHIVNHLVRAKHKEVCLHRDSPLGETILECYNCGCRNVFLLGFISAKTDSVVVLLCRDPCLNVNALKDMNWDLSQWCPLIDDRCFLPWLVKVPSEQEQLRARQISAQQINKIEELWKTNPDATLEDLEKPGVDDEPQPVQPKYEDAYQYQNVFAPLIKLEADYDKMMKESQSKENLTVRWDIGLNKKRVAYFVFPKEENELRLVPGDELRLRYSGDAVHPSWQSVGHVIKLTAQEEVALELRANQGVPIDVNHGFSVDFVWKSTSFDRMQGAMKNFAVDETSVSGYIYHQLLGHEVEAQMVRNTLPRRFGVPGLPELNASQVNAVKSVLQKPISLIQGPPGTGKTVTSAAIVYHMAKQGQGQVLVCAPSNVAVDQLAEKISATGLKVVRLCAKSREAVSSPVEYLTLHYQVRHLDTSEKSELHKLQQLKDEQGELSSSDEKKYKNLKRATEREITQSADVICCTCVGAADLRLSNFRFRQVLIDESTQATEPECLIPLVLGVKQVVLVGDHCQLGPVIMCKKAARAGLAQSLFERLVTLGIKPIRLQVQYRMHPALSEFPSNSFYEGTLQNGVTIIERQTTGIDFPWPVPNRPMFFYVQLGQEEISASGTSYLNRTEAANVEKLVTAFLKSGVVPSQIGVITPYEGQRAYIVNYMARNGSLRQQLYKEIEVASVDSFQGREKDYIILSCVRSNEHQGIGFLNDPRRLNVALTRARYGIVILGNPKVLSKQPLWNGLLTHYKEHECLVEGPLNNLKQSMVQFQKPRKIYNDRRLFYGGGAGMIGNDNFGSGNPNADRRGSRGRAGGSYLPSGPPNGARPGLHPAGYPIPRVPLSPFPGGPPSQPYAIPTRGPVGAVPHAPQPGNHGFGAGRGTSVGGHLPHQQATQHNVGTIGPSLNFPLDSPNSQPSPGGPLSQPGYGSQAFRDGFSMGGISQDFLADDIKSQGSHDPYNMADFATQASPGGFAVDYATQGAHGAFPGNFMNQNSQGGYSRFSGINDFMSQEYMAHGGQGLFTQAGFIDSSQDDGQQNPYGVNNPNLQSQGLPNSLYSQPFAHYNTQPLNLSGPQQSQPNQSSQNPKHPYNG
The test is described as follows: co-IP; HA-tagged proteins precipitated with anti-HA beads from extracts of agroinfiltrated N. benthamiana leaves (3 dpi) co-expressing 6×myc-AtAGO1 and GFP-IR; IP buffer 30 mM TRIS pH 7.5, 150 mM NaCl, 5 mM MgCl2, 5 mM DTT, 10% glycerol, 1 hour at 4°C; Western blot with anti-myc and anti-HA. Particulars: remark: other sources report otherwise. (A western blot detects proteins with antibodies after separation by electrophoresis.)

These are yes or no findings as the source states them, for the method shown. Binding seen in cells or lysates may run through a third protein. Tags and fused reporters may be left off the sequences shown.

B1: 6×myc-tagged AGO1 of Arabidopsis thaliana (myc-AGO1), O04379 1-1048 (protein)
chain: MVRKRRTDAPSEGGEGSGSREAGPVSGGGRGSQRGGFQQGGGQHQGGRGYTPQPQQGGRGGRGYGQPPQQQQQYGGPQEYQGRGRGGPPHQGGRGGYGGGRGGGPSSGPPQRQSVPELHQATSPTYQAVSSQPTLSEVSPTQVPEPTVLAQQFEQLSVEQGAPSQAIQPIPSSSKAFKFPMRPGKGQSGKRCIVKANHFFAELPDKDLHHYDVTITPEVTSRGVNRAVMKQLVDNYRDSHLGSRLPAYDGRKSLYTAGPLPFNSKEFRINLLDEEVGAGGQRREREFKVVIKLVARADLHHLGMFLEGKQSDAPQEALQVLDIVLRELPTSRYIPVGRSFYSPDIGKKQSLGDGLESWRGFYQSIRPTQMGLSLNIDMSSTAFIEANPVIQFVCDLLNRDISSRPLSDADRVKIKKALRGVKVEVTHRGNMRRKYRISGLTAVATRELTFPVDERNTQKSVVEYFHETYGFRIQHTQLPCLQVGNSNRPNYLPMEVCKIVEGQRYSKRLNERQITALLKVTCQRPIDREKDILQTVQLNDYAKDNYAQEFGIKISTSLASVEARILPPPWLKYHESGREGTCLPQVGQWNMMNKKMINGGTVNNWICINFSRQVQDNLARTFCQELAQMCYVSGMAFNPEPVLPPVSARPEQVEKVLKTRYHDATSKLSQGKEIDLLIVILPDNNGSLYGDLKRICETELGIVSQCCLTKHVFKMSKQYMANVALKINVKVGGRNTVLVDALSRRIPLVSDRPTIIFGADVTHPHPGEDSSPSIAAVVASQDWPEITKYAGLVCAQAHRQELIQDLFKEWKDPQKGVVTGGMIKELLIAFRRSTGHKPLRIIFYRDGVSEGQFYQVLLYELDAIRKACASLEAGYQPPVTFVVVQKRHHTRLFAQNHNDRHSVDRSGNILPGTVVDSKICHPTEFDFYLCSHAGIQGTSRPAHYHVLWDENNFTADGLQSLTNNLCYTYARCTRSVSIVPPAYYAHLAAFRARFYMEPETSDSGSMASGSMARGGGMAGRSTRGPNVNAAVRPLPALKENVKRVMFYC
As to B1, the binding entry is “no binding”.

The values above are taken from publication PMC2904775.
